Source: paper PMC3372421
No constants are given. Whether binding was seen depends on the method and setting. In cells and extracts the contact can be indirect. These calls come from enrichment with a bait or labelling near it, and not all partners need be listed.

The chains behind the UniProt entries cited, without tags or fusion partners.
UniProt Q7Z434: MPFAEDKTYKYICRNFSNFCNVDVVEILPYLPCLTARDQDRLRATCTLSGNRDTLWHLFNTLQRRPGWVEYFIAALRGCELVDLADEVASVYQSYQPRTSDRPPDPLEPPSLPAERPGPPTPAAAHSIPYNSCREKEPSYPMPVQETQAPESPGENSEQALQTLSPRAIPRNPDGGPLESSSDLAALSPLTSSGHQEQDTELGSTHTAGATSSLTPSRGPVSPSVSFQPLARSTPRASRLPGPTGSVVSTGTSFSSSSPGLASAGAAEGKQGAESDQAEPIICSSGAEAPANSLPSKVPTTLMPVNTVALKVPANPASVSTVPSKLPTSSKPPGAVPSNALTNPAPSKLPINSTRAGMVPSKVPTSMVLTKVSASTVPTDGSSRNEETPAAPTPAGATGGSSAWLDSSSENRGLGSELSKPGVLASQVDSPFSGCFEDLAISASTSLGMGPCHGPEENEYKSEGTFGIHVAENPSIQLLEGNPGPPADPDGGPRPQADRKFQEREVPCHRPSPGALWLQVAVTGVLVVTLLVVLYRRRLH
UniProt Q14258: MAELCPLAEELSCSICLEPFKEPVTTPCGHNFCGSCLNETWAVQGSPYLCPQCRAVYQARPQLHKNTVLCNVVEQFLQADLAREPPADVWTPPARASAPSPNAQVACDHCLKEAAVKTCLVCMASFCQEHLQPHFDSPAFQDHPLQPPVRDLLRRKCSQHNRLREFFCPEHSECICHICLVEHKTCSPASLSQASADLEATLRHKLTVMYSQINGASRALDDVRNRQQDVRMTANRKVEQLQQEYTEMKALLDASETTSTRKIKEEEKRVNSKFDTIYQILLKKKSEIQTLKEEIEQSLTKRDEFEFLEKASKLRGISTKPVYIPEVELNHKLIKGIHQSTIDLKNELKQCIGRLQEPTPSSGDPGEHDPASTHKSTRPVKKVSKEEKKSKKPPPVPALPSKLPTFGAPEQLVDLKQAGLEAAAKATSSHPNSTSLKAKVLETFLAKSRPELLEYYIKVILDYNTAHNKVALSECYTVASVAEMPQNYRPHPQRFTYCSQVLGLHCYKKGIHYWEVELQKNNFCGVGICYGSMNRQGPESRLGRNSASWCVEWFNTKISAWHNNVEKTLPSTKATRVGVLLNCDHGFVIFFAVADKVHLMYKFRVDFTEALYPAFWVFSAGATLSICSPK

Target: mitochondrial antiviral signaling adaptor MAVS (human (endogenous in HEK293T)) (UniProt Q7Z434)
Assay: affinity purification with mass spectrometry; MAVS complex immunoprecipitated from cells infected with SeV H4 for four hours; one-dimensional gel, nano LC-MS/MS (10 segment GelC/MS, spectral counting)

## E3 ubiquitin ligase TRIM25 (from UniProt Q14258 1-630)
  binding: binds
